Here are results for one substance from publication PMC5963871.

Sequences of proteins named here, by UniProt entry; tags and fusion partners are left off.
UniProt Q9VW15: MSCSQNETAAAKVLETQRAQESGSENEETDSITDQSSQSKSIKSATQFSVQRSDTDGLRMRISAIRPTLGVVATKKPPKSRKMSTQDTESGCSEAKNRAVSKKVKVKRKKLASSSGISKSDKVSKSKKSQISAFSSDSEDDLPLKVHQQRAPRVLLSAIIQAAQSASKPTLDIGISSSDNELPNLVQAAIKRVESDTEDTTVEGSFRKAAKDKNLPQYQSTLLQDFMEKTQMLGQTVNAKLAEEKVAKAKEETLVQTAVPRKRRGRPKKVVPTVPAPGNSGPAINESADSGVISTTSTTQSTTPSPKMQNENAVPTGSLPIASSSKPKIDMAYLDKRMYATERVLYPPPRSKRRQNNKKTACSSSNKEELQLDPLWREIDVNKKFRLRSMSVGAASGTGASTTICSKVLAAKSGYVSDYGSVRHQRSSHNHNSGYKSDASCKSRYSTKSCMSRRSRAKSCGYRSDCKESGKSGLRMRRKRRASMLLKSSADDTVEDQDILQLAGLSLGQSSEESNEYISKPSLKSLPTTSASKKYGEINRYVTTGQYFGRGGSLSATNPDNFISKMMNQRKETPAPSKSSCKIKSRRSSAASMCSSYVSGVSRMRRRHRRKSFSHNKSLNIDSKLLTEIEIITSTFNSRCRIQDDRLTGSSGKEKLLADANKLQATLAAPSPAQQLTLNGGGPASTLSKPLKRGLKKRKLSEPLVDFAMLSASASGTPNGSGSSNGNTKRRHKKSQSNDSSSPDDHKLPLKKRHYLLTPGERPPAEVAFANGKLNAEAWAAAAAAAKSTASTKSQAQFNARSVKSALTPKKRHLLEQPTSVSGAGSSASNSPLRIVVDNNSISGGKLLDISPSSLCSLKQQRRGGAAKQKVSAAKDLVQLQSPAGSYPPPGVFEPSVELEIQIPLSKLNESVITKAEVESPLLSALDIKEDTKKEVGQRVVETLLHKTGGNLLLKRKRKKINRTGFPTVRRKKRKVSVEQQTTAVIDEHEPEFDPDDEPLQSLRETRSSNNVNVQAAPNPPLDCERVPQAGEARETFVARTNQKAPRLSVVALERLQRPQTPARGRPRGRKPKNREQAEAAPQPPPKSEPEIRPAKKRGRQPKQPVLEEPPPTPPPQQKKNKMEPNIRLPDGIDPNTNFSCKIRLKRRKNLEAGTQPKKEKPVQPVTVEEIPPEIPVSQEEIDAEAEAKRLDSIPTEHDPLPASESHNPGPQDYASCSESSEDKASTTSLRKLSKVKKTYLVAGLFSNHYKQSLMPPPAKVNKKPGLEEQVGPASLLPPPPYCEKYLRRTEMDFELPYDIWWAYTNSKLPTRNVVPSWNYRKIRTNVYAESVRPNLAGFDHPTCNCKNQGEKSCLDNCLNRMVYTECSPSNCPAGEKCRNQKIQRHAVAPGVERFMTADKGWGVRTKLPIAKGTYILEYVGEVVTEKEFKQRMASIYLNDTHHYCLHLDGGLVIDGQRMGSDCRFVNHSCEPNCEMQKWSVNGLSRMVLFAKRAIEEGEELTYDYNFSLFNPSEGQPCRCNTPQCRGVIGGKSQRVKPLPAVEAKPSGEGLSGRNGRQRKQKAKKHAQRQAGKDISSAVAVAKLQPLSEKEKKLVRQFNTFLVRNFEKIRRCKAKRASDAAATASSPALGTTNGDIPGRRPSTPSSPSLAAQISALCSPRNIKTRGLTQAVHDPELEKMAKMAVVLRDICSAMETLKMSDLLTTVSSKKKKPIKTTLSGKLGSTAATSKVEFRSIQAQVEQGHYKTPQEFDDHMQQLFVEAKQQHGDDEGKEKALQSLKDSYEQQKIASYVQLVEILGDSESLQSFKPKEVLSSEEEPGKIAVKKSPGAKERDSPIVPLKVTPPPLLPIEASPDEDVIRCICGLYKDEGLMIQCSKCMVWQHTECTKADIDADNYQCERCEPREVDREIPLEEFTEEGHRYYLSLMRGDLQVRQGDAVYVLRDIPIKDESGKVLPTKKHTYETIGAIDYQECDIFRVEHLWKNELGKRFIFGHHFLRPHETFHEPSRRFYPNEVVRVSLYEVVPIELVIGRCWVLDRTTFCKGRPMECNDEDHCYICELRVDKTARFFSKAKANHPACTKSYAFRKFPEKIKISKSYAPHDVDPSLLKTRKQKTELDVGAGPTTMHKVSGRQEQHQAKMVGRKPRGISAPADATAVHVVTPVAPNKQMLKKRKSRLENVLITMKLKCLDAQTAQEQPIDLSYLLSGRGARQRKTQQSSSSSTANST
UniProt Q24572: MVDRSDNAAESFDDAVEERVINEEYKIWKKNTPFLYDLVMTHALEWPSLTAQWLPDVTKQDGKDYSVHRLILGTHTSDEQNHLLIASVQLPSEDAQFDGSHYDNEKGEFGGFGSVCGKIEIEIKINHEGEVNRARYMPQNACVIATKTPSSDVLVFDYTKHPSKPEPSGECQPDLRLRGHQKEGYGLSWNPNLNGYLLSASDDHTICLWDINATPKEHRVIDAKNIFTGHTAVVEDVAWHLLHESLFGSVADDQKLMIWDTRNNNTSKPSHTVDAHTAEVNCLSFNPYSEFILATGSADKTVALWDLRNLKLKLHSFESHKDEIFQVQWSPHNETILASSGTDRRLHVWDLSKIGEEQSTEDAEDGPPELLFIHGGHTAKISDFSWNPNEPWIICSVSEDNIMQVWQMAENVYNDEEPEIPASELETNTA

Assay [1] has as its target Ash1-CTAP (Drosophila) (UniProt Q9VW15). Nature of the assay: affinity purification with mass spectrometry; tandem affinity purification (TAP) of NTAP-Ash1 or Ash1-CTAP from Drosophila embryonic nuclear extracts; eluates from calmodulin beads separated on 4-12% gels; iBAQ quantification against mock TAP from wild type.
For assay [2], the target named is NTAP-Ash1 (Drosophila) (UniProt Q9VW15). Described as above.

No constants are given. Whether binding was seen depends on the method and setting. Binding seen in cells or lysates may run through a third protein. A yes stands for co-enrichment or nearness to the bait. Other partners may have been found.

For “Caf1-55 (endogenous, Drosophila embryos) (from UniProt Q24572 1-430)”, the binding entry in assay [1] and in assay [2] was “binds” each time.
